Reference: patent US20030049246A1
No constants are given. Whether binding was seen depends on the method and setting. In cells and extracts the contact can be indirect. Some binding calls cover weakened binding; strength is not graded here.

By UniProt entry, the sequences of proteins in these tests, tags left out. Where a name states a change or a piece, a line headed by the entry shows the natural chain unless it says otherwise.
UniProt Q15797: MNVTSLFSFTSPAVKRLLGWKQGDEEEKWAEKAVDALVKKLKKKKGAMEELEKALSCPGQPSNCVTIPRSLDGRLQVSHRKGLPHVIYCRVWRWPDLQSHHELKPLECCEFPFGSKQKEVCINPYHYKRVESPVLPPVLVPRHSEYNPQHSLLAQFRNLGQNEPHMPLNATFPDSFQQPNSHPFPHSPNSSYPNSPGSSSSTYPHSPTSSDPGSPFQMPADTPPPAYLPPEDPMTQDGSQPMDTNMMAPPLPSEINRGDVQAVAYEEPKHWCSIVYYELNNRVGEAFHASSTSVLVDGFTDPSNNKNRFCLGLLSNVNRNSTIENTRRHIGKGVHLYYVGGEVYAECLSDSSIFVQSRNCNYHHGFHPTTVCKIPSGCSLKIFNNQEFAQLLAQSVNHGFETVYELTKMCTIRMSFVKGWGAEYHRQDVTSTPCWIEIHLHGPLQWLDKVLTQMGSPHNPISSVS
UniProt Q15796: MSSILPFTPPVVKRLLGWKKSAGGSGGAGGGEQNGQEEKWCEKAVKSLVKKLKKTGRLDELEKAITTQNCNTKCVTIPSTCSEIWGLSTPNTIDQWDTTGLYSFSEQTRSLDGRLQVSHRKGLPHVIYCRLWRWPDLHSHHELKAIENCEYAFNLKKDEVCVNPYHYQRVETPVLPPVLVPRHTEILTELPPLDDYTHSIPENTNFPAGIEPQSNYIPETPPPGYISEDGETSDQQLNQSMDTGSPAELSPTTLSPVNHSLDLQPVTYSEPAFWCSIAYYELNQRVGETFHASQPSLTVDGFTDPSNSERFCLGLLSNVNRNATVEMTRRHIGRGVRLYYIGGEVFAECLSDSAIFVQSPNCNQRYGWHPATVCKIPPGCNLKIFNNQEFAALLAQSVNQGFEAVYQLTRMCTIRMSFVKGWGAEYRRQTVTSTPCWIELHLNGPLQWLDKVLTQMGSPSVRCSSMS
UniProt P84022: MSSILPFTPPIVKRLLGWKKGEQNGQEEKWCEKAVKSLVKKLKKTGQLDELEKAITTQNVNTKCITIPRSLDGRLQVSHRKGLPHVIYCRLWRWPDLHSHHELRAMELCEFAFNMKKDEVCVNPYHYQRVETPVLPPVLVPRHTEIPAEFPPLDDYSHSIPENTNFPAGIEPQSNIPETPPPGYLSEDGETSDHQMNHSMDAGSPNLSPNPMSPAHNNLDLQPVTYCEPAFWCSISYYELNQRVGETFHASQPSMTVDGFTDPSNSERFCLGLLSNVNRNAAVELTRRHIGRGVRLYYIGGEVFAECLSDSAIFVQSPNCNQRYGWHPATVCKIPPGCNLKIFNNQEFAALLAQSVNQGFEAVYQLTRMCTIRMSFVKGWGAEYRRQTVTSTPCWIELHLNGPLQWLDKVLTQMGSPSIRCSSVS
UniProt Q13485: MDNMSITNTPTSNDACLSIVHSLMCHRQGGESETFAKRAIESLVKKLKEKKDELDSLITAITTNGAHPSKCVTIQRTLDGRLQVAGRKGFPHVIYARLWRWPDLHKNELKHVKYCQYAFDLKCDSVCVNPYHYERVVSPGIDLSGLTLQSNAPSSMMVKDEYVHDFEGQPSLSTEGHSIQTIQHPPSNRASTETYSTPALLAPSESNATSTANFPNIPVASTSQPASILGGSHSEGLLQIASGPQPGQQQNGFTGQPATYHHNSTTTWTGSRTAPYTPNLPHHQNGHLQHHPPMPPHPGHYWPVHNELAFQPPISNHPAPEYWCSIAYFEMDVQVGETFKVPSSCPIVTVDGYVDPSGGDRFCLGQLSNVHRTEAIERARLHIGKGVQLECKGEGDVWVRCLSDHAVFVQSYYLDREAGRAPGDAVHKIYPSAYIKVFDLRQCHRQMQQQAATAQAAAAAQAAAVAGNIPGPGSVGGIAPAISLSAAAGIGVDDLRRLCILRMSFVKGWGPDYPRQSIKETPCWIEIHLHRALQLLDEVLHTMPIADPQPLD
UniProt P10071: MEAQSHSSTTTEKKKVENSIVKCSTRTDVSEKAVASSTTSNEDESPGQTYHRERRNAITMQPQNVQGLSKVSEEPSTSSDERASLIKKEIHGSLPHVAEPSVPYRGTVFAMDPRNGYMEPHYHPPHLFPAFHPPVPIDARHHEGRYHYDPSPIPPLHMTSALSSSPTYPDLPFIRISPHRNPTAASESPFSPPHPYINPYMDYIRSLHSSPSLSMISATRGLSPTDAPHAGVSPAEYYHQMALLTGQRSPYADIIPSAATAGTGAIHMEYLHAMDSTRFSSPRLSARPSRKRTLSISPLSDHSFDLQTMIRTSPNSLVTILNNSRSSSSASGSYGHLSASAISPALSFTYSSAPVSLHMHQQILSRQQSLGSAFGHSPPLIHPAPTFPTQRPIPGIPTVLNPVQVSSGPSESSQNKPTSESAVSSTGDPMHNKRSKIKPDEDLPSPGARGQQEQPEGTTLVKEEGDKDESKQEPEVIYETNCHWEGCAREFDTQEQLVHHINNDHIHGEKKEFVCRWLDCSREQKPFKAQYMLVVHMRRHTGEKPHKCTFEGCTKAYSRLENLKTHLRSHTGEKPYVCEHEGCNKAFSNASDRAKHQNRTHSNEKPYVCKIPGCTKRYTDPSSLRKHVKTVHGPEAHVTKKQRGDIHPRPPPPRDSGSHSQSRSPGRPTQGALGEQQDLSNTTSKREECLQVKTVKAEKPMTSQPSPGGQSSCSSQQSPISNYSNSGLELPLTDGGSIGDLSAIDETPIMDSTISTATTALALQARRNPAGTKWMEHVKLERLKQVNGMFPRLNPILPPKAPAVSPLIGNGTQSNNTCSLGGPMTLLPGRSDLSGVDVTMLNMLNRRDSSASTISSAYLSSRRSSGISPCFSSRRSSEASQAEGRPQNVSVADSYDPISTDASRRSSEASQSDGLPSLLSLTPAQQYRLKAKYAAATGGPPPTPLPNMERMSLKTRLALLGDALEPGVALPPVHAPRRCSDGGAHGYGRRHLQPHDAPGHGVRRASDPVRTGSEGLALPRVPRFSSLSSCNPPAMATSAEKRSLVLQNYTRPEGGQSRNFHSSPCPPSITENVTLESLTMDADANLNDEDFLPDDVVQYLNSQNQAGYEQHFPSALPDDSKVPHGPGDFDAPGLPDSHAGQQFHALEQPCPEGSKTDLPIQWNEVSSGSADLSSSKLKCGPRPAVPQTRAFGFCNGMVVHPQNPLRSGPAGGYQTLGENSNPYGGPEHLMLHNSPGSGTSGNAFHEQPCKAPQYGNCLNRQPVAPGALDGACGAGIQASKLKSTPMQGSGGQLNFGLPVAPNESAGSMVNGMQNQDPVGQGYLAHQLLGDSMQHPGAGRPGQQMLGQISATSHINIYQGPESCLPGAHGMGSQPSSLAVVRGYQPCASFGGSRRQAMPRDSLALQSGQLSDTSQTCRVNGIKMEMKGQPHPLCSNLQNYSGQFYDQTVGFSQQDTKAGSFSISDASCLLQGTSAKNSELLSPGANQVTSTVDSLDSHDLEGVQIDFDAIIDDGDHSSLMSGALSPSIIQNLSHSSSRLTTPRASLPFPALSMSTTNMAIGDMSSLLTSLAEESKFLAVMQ

Experiments:
Flag-Smad1 [1] = molecular target: Flag-Smad1 (UniProt Q15797); assay: co-immunoprecipitation (anti-Flag IP, anti-Myc blot), transfected cells; BMP signaling partially inhibited complex formation
Flag-Smad1 [2] = molecular target: Flag-Smad1 (UniProt Q15797); assay: co-immunoprecipitation (anti-Flag IP, anti-Myc blot), transfected R1B/L17 cells; complexes negatively affected by the appropriate agonist
Flag-Smad2 = Flag-Smad2 (UniProt Q15796); assay: as above
Flag-Smad3 = Flag-Smad3 (UniProt P84022); assay: as above
Flag-Smad4 = Flag-Smad4 (UniProt Q13485); assay: as above

Measured: binding

Gli3C′ΔClaI (Myc-tagged C-terminal deleted ClaI Gli 3 truncate) (from UniProt P10071 1-745)
binds: all assays above
